These are yes or no findings as the source states them, for the method shown. Binding seen in cells or lysates may run through a third protein. Some binding calls cover weakened binding; strength is not graded here. Each block holds one substance with its values, some of them ahead of it.
Assays:
Experiment in all cases: cross-linking; lysates of transfected HEK293T cells, 1 mM CuP 5 min at room temperature, stopped with 50 mM N-ethylmaleimide; non-reducing 12% SDS-PAGE, anti-Orai1 blot, percentage of dimer formation
[1] = target: Orai1 K85E R91C H134A (human) (UniProt Q96D31)
[2] = target: Orai1 K85E V102C H134A (human) (UniProt Q96D31)
Orai1 R91C (human) = Orai1 R91C (human) (UniProt Q96D31)
Orai1 R91C H134A (human) = Orai1 R91C H134A (human) (UniProt Q96D31)
[3] = target: Orai1 R91C H134A E149K (human) (UniProt Q96D31)
[4] = target: Orai1 R91C H134A L174D (human) (UniProt Q96D31)
[5] = target: Orai1 R91C H134A S239W (human) (UniProt Q96D31)
Orai1 V102C (human) = Orai1 V102C (human) (UniProt Q96D31)
[6] = target: Orai1 V102C H134A (human) (UniProt Q96D31)

Amino acid sequences for entries named in this document (tags omitted). A change or cut given only in a name is not applied to a line headed by its entry.
UniProt Q96D31: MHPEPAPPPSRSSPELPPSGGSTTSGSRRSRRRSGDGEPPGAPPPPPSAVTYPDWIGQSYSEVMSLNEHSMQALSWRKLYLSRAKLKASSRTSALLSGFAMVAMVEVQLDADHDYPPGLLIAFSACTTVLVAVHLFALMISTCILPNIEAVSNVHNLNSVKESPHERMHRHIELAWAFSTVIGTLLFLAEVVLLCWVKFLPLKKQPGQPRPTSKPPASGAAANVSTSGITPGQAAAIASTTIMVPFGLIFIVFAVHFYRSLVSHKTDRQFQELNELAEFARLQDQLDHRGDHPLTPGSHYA

binding [1]: binds
Substance: Orai1 K85E R91C H134A (from UniProt Q96D31-1 1-301)

binding [2]: binds
Substance: Orai1 K85E V102C H134A (from UniProt Q96D31-1 1-301)

binding (Orai1 R91C (human)): binds
Substance: Orai1 R91C (from UniProt Q96D31-1 1-301)

binding (Orai1 R91C H134A (human)): binds
Substance: Orai1 R91C H134A (from UniProt Q96D31-1 1-301)

binding [3]: binds
Substance: Orai1 R91C H134A E149K (from UniProt Q96D31-1 1-301)

binding [4]: binds
Substance: Orai1 R91C H134A L174D (from UniProt Q96D31-1 1-301)

binding [5]: binds
Substance: Orai1 R91C H134A S239W (from UniProt Q96D31-1 1-301)

binding (Orai1 V102C (human)): binds
Substance: Orai1 V102C (from UniProt Q96D31-1 1-301)

binding [6]: binds
Substance: Orai1 V102C H134A (from UniProt Q96D31-1 1-301)
